PubChem BioAssay AID1224831, NIAID, 2016

Aim: 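Retesting screen hits on the TLR4-driven TNF response with six separate siRNAs each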 (follow-up of hits)
System: human THP-1 B5 monocytic leukaemia cells carrying a TNF promoter luciferase reporter, made macrophage-like with PMA
Reagent: single siRNA against human genes, 50 nM
Time to read-out: about 68 h of knock-down, then 4 h LPS
Conditions: LPS (Salmonella minnesota, TLR-grade) at 10 ng/ml for 4 h; PMA 5 ng/ml present during knock-down
Measurement: 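Firefly to renilla luciferase ratio of a TNF promoter reporter after 4 h LPS, scaled to plate median, turned into robust z-score, averaged over replicates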
Reading the numbers: TNF reporter z-score: higher = stronger LPS-induced TNF reporter signal
Call rule: 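Active when the replicate mean z-score is about -1 or lower, or about 1.5 or higher; lowered and raised TNF reporter signal both count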
Calls: active = changed TNF reporter (either direction); inactive = little change
The whole screen tested about 3,500 reagents; below is a random part of them. 731 of all reagents (21%) were called active. 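Active means either lowered or raised reporter signal; the gene-median score did not drive the per-siRNA calls.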 A number with no mark means an inactive call. The numbers tell different reagents against one gene apart. Further read-outs or replicates are left out here.

TNF reporter z-score, replicate mean, by gene and reagent
TMED10 (transmembrane p24 trafficking protein 10): #1 3.15 (active); #2 -0.29; #3 -0.05; #4 -0.03; #5 0.45; #6 -0.6
ZDHHC4 (zDHHC palmitoyltransferase 4): #1 -0.52; #2 -0.52; #3 -0.31; #4 0.54; #5 -0.19; #6 0.96
SPANXN5 (SPANX family member N5): #1 0.72; #2 0.23; #3 -0.1; #4 0.28; #5 0.09; #6 0.41
TMED4 (transmembrane p24 trafficking protein 4): #1 -0.53; #2 1.16; #3 -1.25 (active); #4 -0.74; #5 -1.31 (active); #6 2.51 (active)
ZDHHC1 (zDHHC palmitoyltransferase 1): #1 -0.12; #2 0.9; #3 -0.46; #4 0.74; #5 0.11; #6 -0.35
ENPP6 (ectonucleotide pyrophosphatase/phosphodiesterase 6): #1 0.58; #2 -1.49 (active); #3 -0.2; #4 -0.07; #5 3.83 (active); #6 -0.57
CCDC85B (coiled-coil domain containing 85B): #1 -0.52; #2 -0.91; #3 -0.1; #4 -0.23; #5 -0.18; #6 3.35 (active)
PSMD2 (proteasome 26S subunit ubiquitin receptor, non-ATPase 2): #1 -1.23 (active); #2 -1.21 (active); #3 -1.02 (active); #4 -1.19 (active); #5 -0.65; #6 -0.79
ZAP70 (zeta chain of T cell receptor associated protein kinase 70): #1 -0.02; #2 -0.04; #3 0.67; #4 -0.25; #5 0.28; #6 0.08
RPL7L1 (ribosomal protein L7 like 1): #1 -0.05; #2 1.47; #3 -0.64; #4 -0.35; #5 -1.49 (active); #6 -0.63

5 of these entries, set out differently:
{"gene":"SPANXN5 (SPANX family member N5)","reagent no.":2,"TNF reporter z-score, replicate mean":0.23}
{"gene":"SPANXN5 (SPANX family member N5)","reagent no.":3,"TNF reporter z-score, replicate mean":-0.1}
{"gene":"SPANXN5 (SPANX family member N5)","reagent no.":4,"TNF reporter z-score, replicate mean":0.28}
{"gene":"SPANXN5 (SPANX family member N5)","reagent no.":5,"TNF reporter z-score, replicate mean":0.09}
{"gene":"SPANXN5 (SPANX family member N5)","reagent no.":6,"TNF reporter z-score, replicate mean":0.41}
